Results are given in words; binding and its absence hold for the method and conditions named. Some entries that bind do so weakly or less than the wild type.
Columns and labels:
[1] = target: Gastrin-releasing peptide receptor (GRPR) (human (endogenous in DMS79)) (UniProt P30550); test: flow cytometry on cells; DMS79 cells cultured under normoxia or hypoxia for 24 h, incubated with BBN-FITC at 3, 5 or 10 µM for 30 min at room temperature, washed with PBS; mean fluorescence intensity; only the binder purified
[2] = target: Gastrin-releasing peptide receptor (GRPR) (human (endogenous in DMS79)) (UniProt P30550); test: flow cytometry on cells; competition: DMS79 cells pre-incubated under normoxia or hypoxia for 24 h, BU peptide (5-10 µM) for 1 h, then BBN-FITC (10 µM) for 30 min at 37 °C in the dark, washed twice with cold PBS; MFI normalised to the untreated control; only the binder purified

Amino acid sequences for entries named in this document (tags omitted). A change or cut given only in a name is not applied to a line headed by its entry.
UniProt P30550: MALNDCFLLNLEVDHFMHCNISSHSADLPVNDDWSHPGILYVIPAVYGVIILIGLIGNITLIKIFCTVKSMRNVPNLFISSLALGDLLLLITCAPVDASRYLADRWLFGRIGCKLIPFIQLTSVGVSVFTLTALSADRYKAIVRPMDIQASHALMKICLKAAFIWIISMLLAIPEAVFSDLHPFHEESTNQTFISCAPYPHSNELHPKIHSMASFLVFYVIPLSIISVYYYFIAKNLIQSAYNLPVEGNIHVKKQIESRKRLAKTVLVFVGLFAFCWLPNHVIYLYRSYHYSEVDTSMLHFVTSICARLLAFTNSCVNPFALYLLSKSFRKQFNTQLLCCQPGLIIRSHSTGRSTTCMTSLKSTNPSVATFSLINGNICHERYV
UniProt P84213: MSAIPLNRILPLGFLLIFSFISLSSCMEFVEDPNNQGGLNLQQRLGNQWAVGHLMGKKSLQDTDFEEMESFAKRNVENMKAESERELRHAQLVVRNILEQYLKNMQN

QQRLGNQWAVGHLM (peptide, UniProt P84213 42-55, FITC label (position not given)) [fluorescein isothiocyanate-labelled bombesin (BBN-FITC)]
binding [1]: binds
binding [2]: binds

From publication PMC12608118
